# Primary screen of a compound library

The chains behind the UniProt entries cited, without tags or fusion partners.
UniProt E9BF75, entry or part of it: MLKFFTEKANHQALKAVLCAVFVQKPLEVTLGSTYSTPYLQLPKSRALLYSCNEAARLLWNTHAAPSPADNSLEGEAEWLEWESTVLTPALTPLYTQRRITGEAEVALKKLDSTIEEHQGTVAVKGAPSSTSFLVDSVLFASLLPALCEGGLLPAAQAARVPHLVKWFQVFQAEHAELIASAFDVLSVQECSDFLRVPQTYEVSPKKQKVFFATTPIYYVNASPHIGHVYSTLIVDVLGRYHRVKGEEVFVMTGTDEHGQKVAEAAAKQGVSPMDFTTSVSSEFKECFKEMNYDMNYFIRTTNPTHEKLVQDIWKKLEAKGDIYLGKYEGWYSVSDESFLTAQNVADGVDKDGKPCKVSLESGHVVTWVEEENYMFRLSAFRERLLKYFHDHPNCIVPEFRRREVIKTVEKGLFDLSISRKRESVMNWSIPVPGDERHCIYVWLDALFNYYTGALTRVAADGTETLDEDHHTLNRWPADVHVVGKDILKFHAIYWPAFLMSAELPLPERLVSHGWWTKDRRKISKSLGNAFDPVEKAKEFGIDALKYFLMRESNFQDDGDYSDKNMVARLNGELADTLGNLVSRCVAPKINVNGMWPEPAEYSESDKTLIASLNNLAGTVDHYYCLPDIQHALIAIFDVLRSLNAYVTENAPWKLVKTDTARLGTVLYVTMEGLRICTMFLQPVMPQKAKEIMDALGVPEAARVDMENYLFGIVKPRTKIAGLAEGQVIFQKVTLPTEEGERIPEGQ

From ChEMBL document CHEMBL3988442, “University of Dundee, Small-Polar-MMV Screening Library” (2021).

LdMetRS: 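Methionyl-tRNA synthetase (putative), Leishmania donovani (UniProt E9BF75). Primary screen of methionyl-tRNA synthetase; the read-out is not stated. The test concentration is not given. Values are per cent inhibition. Size under these conditions: about 68,000 compounds, about 24 of them at 50% or above in at least one test.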
Mtb heat-shock: 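Assay on Mycobacterium tuberculosis, filed only as a heat shock assay from Cornell; the read-out is not stated. The concentration is filed as 10 mM, unlikely as a test dose, so the dose is not known. Direction is inferred from retests: higher values go with stronger inhibition. About 69,000 compounds were tested under these conditions; 1.4% (about 930) showed 50% or more at least once.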

All values are in %. The record does not define 0% and 100%; most values in the screen are far below 50% and negative numbers occur (in some assays of this library far below -100). The compounds are a random part of those screened. A dash means the value is not listed here; it may have been measured.

Compound	LdMetRS	Mtb heat-shock
CC(NS(C)(=O)=O)C(=O)Nc1ccc2oc(C3CC3)nc2c1 (stereo not drawn)	10.03%	-6.232%
O=C(Cn1ccnc1)N1C[C@@H]2CC[C@H](Oc3ccccc3Cl)[C@@H]2C1	7.192%	-
O=C1CCC2(CCNCC2)CN1Cc1nnc2ccccn12	12.61%	-3.875%
Cc1ccc(NC(=O)CCc2ccco2)cc1N1CCOC1=O	11.88%	16.13%
CCOC(=O)N1CCC(NC(=O)c2cccc(C3CCCNC3)c2)CC1 (stereo not drawn)	15.48%	-31.38%
O=C(O)C(F)(F)F.O=C(O)C(F)(F)F.[H][C@@]12C[C@@H](OCc3ccccn3)CN1CCN(c1ncc(C)cn1)C2	-	-17.66%
Cc1ccc(CN2CCc3ncc(CNS(C)(=O)=O)n3CC2)o1	14.5%	-
CC1(C)[C@H]2CC=C(CN3CCCn4nc(C(=O)O)cc4C3)[C@@H]1C2	11.39%	-
CN(C)C(=O)CO[C@H]1CO[C@@]2(CCN(Cc3ccoc3)C2)C1	15.69%	16.48%
O=C(O)C(F)(F)F.O=C(O)C(F)(F)F.c1cncc(OCC2CN(Cc3nccs3)Cc3nccn3C2)c1 (stereo not drawn)	-	-22.19%
NCc1cn(CC2CCCN(C(=O)NCCc3ccc(F)cc3)C2)nn1 (stereo not drawn)	4.899%	-23.13%
Cc1cc(C)n(CC2CCCN2C(=O)c2ccc3[nH]nnc3c2)n1 (stereo not drawn)	8.374%	7.487%
CCN(Cc1cccnc1)C1CCN(c2ccccc2)C1=O (stereo not drawn)	13.13%	-14.46%
CC(C)C(CNCc1cccc2c1OCO2)N1CCOCC1 (stereo not drawn)	19.09%	-20.82%
Cc1ccccc1S(=O)(=O)Cc1nsc(N(C)C)n1	17.33%	-2.277%
[H][C@@]12OCCN(C(=O)c3nn(C)c4ccccc34)[C@@]1([H])CC[C@@H]2OC	-	47.68%
COc1ccnc(N2CCCN(Cc3ncc(C(C)C)o3)CC2)n1	8.424%	-5.713%
c1cc(-c2n[nH]c(CNc3nnc(C4CC4)o3)n2)ccn1	5.882%	-4.593%
O=C([C@H]1CN(Cc2ccncc2)C[C@H]2OCC[C@@H]12)N1CCCCO1	10.1%	-
CC(C)c1ccc(OCCC(=O)NCCC(=O)N(C)C)cc1	2.419%	-34.93%
Cc1n[nH]c(C)c1NC(=O)CN1CCCC1Cn1cncn1 (stereo not drawn)	9.348%	-8.897%
O=C(CC(SC1CCCCC1)C(=O)O)c1ccc(Br)cc1 (stereo not drawn)	5.391%	39.57%
COCCN1C(=O)CC[C@@H]2[C@@H]1CCN2Cc1c(C)noc1C	13.11%	-
[H][C@@]12CCN(C[C@@H]1c1cc(-c3ccccc3)nn1C)[C@@H](CNS(C)(=O)=O)C2	-	-15.58%
O=C(NCC(O)(c1cccs1)C1CC1)NC1CCCCC1 (stereo not drawn)	-3.597%	1.026%
Cn1cc(Cl)cc1C(=O)N1CCN(CCc2cccs2)CC1	17.89%	-12.33%
Cc1nnc2n1CCN(C(C(=O)NC1CC1)c1ccccc1)C2 (stereo not drawn)	11.04%	-10.96%
CN(CC(=O)N1CCCN(Cc2cscn2)CC1)c1cnccn1	7.317%	10.46%
Cc1noc(CCCC(=O)N2CCN(C)CC2c2ccccc2)n1 (stereo not drawn)	4.676%	-17.86%
FC(F)(F)c1nc(C2CCCNC2)no1 (stereo not drawn)	15.31%	-
CS(=O)(=O)c1cccc(C(N)c2ccc(Cl)cc2)c1 (stereo not drawn)	11.45%	7.232%
c1ccc2oc(N3CCCC4(CCOC4)C3)nc2c1 (stereo not drawn)	12.78%	-28.75%
Cc1c(Cl)cc(C(=O)NCCc2ncnn2C)cc1Cl	16.67%	-0.2444%
CNc1[nH]nc(N)c1NC(=O)c1ccccc1	10.2%	-37.13%
CC(C)Nc1cc(N2CCC(n3cc(CCO)nn3)CC2)ncn1	15.76%	-20.51%
CN(Cc1cn2c(n1)CN(C(=O)c1ccc[nH]1)CC2)Cc1ccco1	14.89%	-
COCCn1ccc2ccc(C(=O)O)cc21	17.07%	-0.8971%
O=C(NC[C@]1(O)CN(Cc2ncccc2F)C[C@H]1O)c1cc[nH]n1	3.459%	-9.98%
O=C(O)C(F)(F)F.[H][C@@]12OCCN(Cc3ccco3)[C@@]1([H])CC[C@H]2OCC1CC1	-	30.36%
CCn1cnnc1CCNC(=O)C1COc2ccc(OC)cc2C1 (stereo not drawn)	13.73%	-2.648%
Cc1nn(CC(C)C)c(N(C)C)c1CNCc1ccccc1CO	24.44%	15.94%
CN(C)CCOCc1cncc2c1CCN(C(=O)c1cscn1)C2	8.211%	45.26%
O=C(O)C1(Oc2ccc(Cl)cc2)CCN(C2CCOCC2)CC1	11.29%	51.75%
Cc1ccccc1C(CC(=O)N1CCc2sccc2C1)NC(N)=O (stereo not drawn)	16.1%	-25.35%
COCCCC1(CO)CCCN(Cc2nccs2)C1 (stereo not drawn)	3.169%	-3.648%
Cc1cc(CN(Cc2ccccc2)CC(O)c2cccs2)on1 (stereo not drawn)	12.36%	2.37%
O=c1cc(CN(CCO)C2CC2)nc2ccccn12	14.81%	-13.97%
CN(C)C(=O)[C@@H]1C[C@@H]2[C@@H](CCN2Cc2nccs2)O1	2.885%	-
O=C(Cc1ccc(S(=O)(=O)C(F)F)cc1)N1CCC1	10.14%	15.87%
N#Cc1cccc(C(=O)N2CC[C@H]3[C@H]2CCN3CC2CCOCC2)c1	9.341%	-
[H][C@@]12C[C@@H](OC)C[C@]1([H])CN(C(=O)c1ccc(C)s1)C2	-	25.66%
CC1CCN(C[C@H]2CN3CC[C@H]2C[C@@H]3CNC(=O)Nc2ccsc2)CC1	3.846%	-
Cc1ccc(N2CCCN(C(=O)c3cn(C)c4ccccc34)CC2)nn1	3.147%	-12.56%
CC(C)n1cnnc1CN(C)C(=O)c1cnn2ccccc12	3.75%	-14.39%
COCCN1CCOCC2(C1)CN(C(=O)c1conc1C)CCO2 (stereo not drawn)	14.84%	-
NC(=O)NCC(=O)N1CCCC(c2nccn2CC2CCC2)C1 (stereo not drawn)	12.72%	5.456%
[H][C@@]12C[C@H](C(=O)NCc3cccnc3)[C@@]([H])(CN(CC(C)C)C1)O2	-	-12.63%
O=C(O)C(F)(F)F.O=C(O)C(F)(F)F.[H][C@@]12OCCN(CC3CC3)[C@@]1([H])CC[C@H]2OCCCn1cccn1	-	-27.44%
Cc1nsc(NC2CCN(c3ccccc3OC(F)F)C2=O)n1 (stereo not drawn)	6.283%	16.73%
CCc1ncc(CN2CCc3nc4sc(C)cc4c(=O)n3CC2)cn1	7.345%	-1.001%
Cn1nnnc1SCCC(=O)NCC1Cc2ccccc2O1 (stereo not drawn)	14.58%	13.36%
CCN1CCN(C)C(=O)C12CCN(Cc1csc(C)n1)CC2	3.846%	-
CNC(=O)C1(c2cnccn2)CCCN1C(=O)c1ccc(F)cc1 (stereo not drawn)	6.771%	-27.67%
CCc1nnc2n1CCN(Cc1nc(-c3ccoc3)no1)C2	16.56%	13.38%
Cc1c(C)n(CC(O)CN2CCOCC2)c2c(Cl)cccc12.Cl (stereo not drawn)	-	-13.16%
Cc1ccc(C(=O)N2CCN(CC(C)O)CC2)cc1S(C)(=O)=O (stereo not drawn)	24.51%	-19.74%
CCc1cnc(N)nc1NCCC(=O)NC1CCCCC1	7.666%	-6.627%
CCc1nc(C2CCCN2CC(=O)Nc2cc(C)no2)no1 (stereo not drawn)	11.68%	-0.6918%
CS(=O)(=O)c1cc(Cl)cnc1C1CCN(C(=O)C2CCCO2)CC1 (stereo not drawn)	12.46%	-5.956%
CCn1ccc2ccnc(CC3CN(C(=O)Cn4ccnc4C)C3)c21	20.25%	-
COCCN1CCC2(CCCN(C(=O)c3ccoc3C)C2)C1=O (stereo not drawn)	1.613%	9.156%
CC(C)Nc1ncc(-c2csc(NC(=O)C[C@H]3COCCN3)n2)cn1	7.039%	-0.8486%
CC(C)CN1CC(c2nc(-c3ccc(F)cc3)c[nH]2)CC1=O (stereo not drawn)	9.091%	12.14%
Cc1ncc(C(=O)N2CCOC(C(=O)N3CCCCCC3)C2)c(C)n1 (stereo not drawn)	11.05%	-
O=C1CC(N(C(=O)c2ccccc2Br)C2CC2)C(=O)N1 (stereo not drawn)	11.68%	-10.17%
CCC(C)N(Cc1cccnc1)C(=O)c1ccc(NS(=O)(=O)CC)cc1 (stereo not drawn)	14.48%	-24.71%
N#Cc1cc2c(nc1SCc1cc(O)nc(O)n1)CCCCC2	-0.2703%	-15.71%
O=C(CNc1cc(-n2cnnn2)ccc1F)Nc1cc(F)ccc1F	7.784%	-2.759%
[H][C@@]12CCN(Cc3cc(C)on3)C[C@]1([H])OCCN(c1cccnc1)C2=O	-	4.057%